No constants are given. Whether binding was seen depends on the method and setting. Where a sequence is shown, tags or fusion partners need not be part of it. One block for each binder: values may come before it.
Assays:
[1] = molecular target: T1, Myc-Atg9^CTR_758-938-StrepII^2X (S. cerevisiae) (UniProt Q12142); assay: pull-down
T1 sequence: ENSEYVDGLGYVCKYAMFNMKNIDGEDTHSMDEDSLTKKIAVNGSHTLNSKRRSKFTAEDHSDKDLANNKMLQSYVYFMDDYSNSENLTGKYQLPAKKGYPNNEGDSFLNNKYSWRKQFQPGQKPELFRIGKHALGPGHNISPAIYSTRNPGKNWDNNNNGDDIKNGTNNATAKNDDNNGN

[2] = molecular target: T2, FLAG-tagged Atg23 (S. cerevisiae) (UniProt Q06671); assay: pull-down
T2 sequence: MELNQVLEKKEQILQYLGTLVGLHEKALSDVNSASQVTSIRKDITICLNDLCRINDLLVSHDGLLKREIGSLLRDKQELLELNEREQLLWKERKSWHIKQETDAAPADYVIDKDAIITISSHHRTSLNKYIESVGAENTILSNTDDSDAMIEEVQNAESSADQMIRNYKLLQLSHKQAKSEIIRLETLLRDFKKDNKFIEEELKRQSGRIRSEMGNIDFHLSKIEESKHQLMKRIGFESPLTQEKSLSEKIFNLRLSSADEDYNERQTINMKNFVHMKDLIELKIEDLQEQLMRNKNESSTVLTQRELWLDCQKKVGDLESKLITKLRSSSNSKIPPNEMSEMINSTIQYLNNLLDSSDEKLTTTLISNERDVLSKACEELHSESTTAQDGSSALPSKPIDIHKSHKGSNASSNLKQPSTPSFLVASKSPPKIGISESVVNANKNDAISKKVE

binding [1]: no binding
B1: FLAG-tagged Atg23 (protein, UniProt Q06671 1-453)
chain: T2 sequence

binding [2]: no binding
B2: SUMO*-Atg27^CTR-StrepII^2x (domain or fragment, UniProt P46989 223-271)
chain: TRGGSFQDFRAEFIQRSTQFLTSLPEFCKEVVSRILGRSTAQRGGYSAV

Source: doi:10.1101/2025.11.06.685569
